Assay results reported in the supplement of paper PMC10849652.
The list shows a part of the results.

Sequences of proteins named here, by UniProt entry; tags and fusion partners are left off. A change or cut given only in a name is not applied to a line headed by its entry.
UniProt P51636: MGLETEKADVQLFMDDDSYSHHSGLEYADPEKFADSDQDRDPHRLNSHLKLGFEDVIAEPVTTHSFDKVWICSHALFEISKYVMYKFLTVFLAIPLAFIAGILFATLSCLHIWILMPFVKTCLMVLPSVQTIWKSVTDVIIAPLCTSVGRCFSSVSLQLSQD
UniProt Q86X55: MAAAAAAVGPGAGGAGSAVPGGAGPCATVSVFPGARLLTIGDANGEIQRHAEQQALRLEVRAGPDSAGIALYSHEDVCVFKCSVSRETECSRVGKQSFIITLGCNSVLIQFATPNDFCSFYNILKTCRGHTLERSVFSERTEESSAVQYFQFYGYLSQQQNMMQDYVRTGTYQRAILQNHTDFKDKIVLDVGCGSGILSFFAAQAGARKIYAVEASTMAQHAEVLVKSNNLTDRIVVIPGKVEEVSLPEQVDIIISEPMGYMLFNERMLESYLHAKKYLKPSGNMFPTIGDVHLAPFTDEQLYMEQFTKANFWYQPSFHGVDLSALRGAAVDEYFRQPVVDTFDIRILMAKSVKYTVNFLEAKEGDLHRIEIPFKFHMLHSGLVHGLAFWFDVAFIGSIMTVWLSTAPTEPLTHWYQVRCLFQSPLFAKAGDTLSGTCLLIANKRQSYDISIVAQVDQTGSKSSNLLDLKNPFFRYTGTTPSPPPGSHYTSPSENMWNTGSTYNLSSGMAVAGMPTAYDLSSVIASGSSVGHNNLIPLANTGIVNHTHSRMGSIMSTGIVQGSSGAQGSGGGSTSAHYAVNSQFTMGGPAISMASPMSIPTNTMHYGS
UniProt Q8IUF1: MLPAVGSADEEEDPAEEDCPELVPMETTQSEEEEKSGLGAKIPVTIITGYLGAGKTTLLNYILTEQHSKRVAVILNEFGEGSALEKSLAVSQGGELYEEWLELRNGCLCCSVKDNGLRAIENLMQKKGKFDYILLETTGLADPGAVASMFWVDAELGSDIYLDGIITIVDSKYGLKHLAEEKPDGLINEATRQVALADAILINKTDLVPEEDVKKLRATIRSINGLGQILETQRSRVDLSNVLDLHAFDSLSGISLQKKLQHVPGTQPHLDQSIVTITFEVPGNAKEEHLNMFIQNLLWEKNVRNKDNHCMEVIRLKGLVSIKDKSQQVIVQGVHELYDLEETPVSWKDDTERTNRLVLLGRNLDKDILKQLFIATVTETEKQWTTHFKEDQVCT
UniProt P55212: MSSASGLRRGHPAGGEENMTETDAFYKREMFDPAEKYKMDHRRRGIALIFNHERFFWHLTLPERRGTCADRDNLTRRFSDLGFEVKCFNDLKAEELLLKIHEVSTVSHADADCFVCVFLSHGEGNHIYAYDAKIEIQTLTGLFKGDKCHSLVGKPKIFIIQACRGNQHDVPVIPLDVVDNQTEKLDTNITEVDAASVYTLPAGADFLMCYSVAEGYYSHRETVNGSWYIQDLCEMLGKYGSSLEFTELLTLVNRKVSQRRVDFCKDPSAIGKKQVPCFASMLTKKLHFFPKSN
UniProt Q14781, whole entry, looked up: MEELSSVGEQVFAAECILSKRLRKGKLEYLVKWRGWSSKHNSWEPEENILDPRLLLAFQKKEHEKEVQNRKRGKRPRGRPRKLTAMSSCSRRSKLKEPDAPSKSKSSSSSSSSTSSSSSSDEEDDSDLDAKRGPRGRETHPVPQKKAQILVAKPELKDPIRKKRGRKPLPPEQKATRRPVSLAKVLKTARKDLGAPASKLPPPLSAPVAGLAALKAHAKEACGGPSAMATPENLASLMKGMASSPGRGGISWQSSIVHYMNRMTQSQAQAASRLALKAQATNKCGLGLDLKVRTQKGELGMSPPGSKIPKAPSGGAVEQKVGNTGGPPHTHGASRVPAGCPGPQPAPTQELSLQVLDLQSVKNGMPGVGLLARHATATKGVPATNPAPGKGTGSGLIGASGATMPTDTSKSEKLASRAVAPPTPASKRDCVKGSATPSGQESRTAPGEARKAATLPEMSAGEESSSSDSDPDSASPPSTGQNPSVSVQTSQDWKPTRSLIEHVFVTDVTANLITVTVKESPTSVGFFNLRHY
UniProt P33681, whole entry, looked up: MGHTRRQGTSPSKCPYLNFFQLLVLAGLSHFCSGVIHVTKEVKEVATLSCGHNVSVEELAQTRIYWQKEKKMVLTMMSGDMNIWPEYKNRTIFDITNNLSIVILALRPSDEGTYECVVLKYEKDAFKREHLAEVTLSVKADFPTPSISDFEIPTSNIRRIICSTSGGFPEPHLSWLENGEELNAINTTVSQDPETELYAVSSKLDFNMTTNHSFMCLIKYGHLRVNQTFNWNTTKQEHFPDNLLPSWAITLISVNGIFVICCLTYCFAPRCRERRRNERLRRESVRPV

Key:
Test in all cases: log2 fold change, soluble protein after heating vs DMSO (PISA); higher = thermal stabilisation; K562 lysate, 10 uM; active = over 0.2 and 3.5 SD of the protein, either way, in both replicates (recomputed)
[1] = compound: CS(=O)(=O)CCNCc1ccc(-c2ccc3ncnc(Nc4ccc(OCc5cccc(F)c5)c(Cl)c4)c3c2)o1 [lapatinib]
Method in brief: (§1)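 Thermal stability, expressed as log-two fold change relative to solvent controls, is given from duplicates. Crude K562 extract in PBS pH 7.4 with 1 mM MgCl2, at 1 mg/mL protein, was treated with 10 μM compound for 30 min and heated in aliquots for 3 min across 48°C-58°C. After pooling, adjustment to 0.5% NP-40 at 4°C and centrifugation at 21,000xg for 90 min, supernatant protein was measured by TMTpro 16plex LC-MS/MS with channel sums equalised.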

[2] = compound: C[C@@H](Oc1cc(-c2cnn(C3CCNCC3)c2)cnc1N)c1c(Cl)ccc(F)c1Cl [crizotinib]
Method in brief: as §1

[3] = compound: C[C@H](C1=CC=C(C=C1)C(=O)NC2=C3C=CNC3=NC=C2)N
Method in brief: as §1

[4] = compound: C[C@H](Nc1ncnc2nc[nH]c12)c1cc2cccc(Cl)c2c(=O)n1-c1ccccc1 [duvelisib]
Method in brief: as §1

[5] = compound: Cc1cc(Nc2cc(CN3CCOCC3)c3nc(C)c(Cc4ccc(Cl)cc4F)n3n2)n[nH]1 [gandotinib]
Method in brief: as §1

[6] = compound: Cc1ccc(-n2nc(C(C)(C)C)cc2NC(=O)Nc2ccc(OCCN3CCOCC3)c3ccccc23)cc1 [doramapimod]
Method in brief: as §1

[7] = compound: Cc1cccc(CC(=O)N2CCc3c2ccc(-c2cn(C)c4ncnc(N)c24)c3F)n1
Method in brief: as §1

[8] = compound: Cc1nc(Nc2ncc(C(=O)Nc3c(C)cccc3Cl)s2)cc(N2CCN(CCO)CC2)n1 [dasatinib]
Method in brief: as §1

[9] = compound: Cn1cc(-c2ccc3c(c2)CCN3C(=O)Cc2cccc(C(F)(F)F)c2)c2c(N)ncnc21
Method in brief: as §1

[10] = compound: Cn1cc(CNCC2CCN(c3ncc(C(=O)NO)cn3)CC2)c2ccccc21 [quisinostat]
Method in brief: as §1

[11] = compound: NC(=O)Nc1cc(-c2cccc(F)c2)sc1C(=O)N[C@H]1CCCNC1
Method in brief: as §1

[12] = compound: NC(=O)c1cnc(N[C@@H]2CCCC[C@@H]2N)nc1Nc1cccc(-n2nccn2)c1
Method in brief: as §1

[13] = compound: NC1(c2ccc(-c3nc4ccn5c(=O)[nH]nc5c4cc3-c3ccccc3)cc2)CCC1
Method in brief: as §1

[14] = compound: CS(=O)(=O)N1CCN(Cc2cc3nc(-c4cccc5[nH]ncc45)nc(N4CCOCC4)c3s2)CC1 [pictilisib]
Method in brief: as §1

[15] = compound: Cc1cc(Nc2cc(N3CCN(C)CC3)nc(Sc3ccc(NC(=O)C4CC4)cc3)n2)n[nH]1 [tozasertib]
Method in brief: as §1

[16] = compound: Cc1ccc(NC(=O)c2ccc(CN3CC[C@H](N(C)C)C3)c(C(F)(F)F)c2)cc1Nc1nccc(-c2cncnc2)n1 [bafetinib]
Method in brief: as §1

[17] = compound: Cc1cn(-c2cc(NC(=O)c3ccc(C)c(Nc4nccc(-c5cccnc5)n4)c3)cc(C(F)(F)F)c2)cn1 [nilotinib]
Method in brief: as §1

[18] = compound: Cc1nc(Nc2n[nH]c3c2CN(C(=O)N[C@H](CN(C)C)c2ccccc2)C3(C)C)c2sccc2n1
Method in brief: as §1

[19] = compound: Cc1ncc(-c2ccnc(Nc3ccc(S(C)(=O)=O)cc3)n2)n1C(C)C
Method in brief: as §1

[20] = compound: Cn1cncc1[C@@](N)(c1ccc(Cl)cc1)c1ccc2c(c1)c(-c1cccc(Cl)c1)cc(=O)n2C [tipifarnib]
Method in brief: as §1

## CAV2 (UniProt P51636)
[1]
  log2 fold change: inactive: -0.089
[2]
  log2 fold change: inactive: 0.04
[3]
  log2 fold change: inactive: -0.05
[4]
  log2 fold change: inactive: 0.05
[5]
  log2 fold change: inactive: 0.084
[6]
  log2 fold change: inactive: -0.063
[7]
  log2 fold change: inactive: 0.248
[8]
  log2 fold change: inactive: 0.03
[9]
  log2 fold change: inactive: -0.221
[10]
  log2 fold change: inactive: -0.038
[11]
  log2 fold change: inactive: 0.114
[12]
  log2 fold change: inactive: 0.173
[13]
  log2 fold change: inactive: 0.273

## CARM1 (UniProt Q86X55)
[1]
  log2 fold change: inactive: -0.041
[14]
  log2 fold change: inactive: -0.007
[2]
  log2 fold change: inactive: 0.005
[3]
  log2 fold change: inactive: -0.052
[4]
  log2 fold change: inactive: -0.004
[5]
  log2 fold change: inactive: 0.014
[15]
  log2 fold change: inactive: -0.016
[6]
  log2 fold change: inactive: 0.069
[16]
  log2 fold change: inactive: -0.055
[7]
  log2 fold change: inactive: 0.02
[17]
  log2 fold change: inactive: -0.009
[18]
  log2 fold change: inactive: 0.007
[8]
  log2 fold change: inactive: -0.016
[19]
  log2 fold change: inactive: 0.008
[9]
  log2 fold change: inactive: -0.006
[10]
  log2 fold change: inactive: -0.017
[20]
  log2 fold change: inactive: -0.064
[11]
  log2 fold change: inactive: 0.024
[12]
  log2 fold change: inactive: 0
[13]
  log2 fold change: inactive: -0.01

## CCDC9, A0A2R8Y4Z8
[1]
  log2 fold change: inactive: 0.215
[14]
  log2 fold change: inactive: 0.08
[2]
  log2 fold change: inactive: 0.236
[4]
  log2 fold change: inactive: -0.044
[6]
  log2 fold change: inactive: -0.195
[16]
  log2 fold change: inactive: -0.154
[8]
  log2 fold change: inactive: 0.303
[9]
  log2 fold change: inactive: 0.065
[10]
  log2 fold change: inactive: 0.023
[11]
  log2 fold change: inactive: 0.357
[12]
  log2 fold change: inactive: -0.45

## CBWD2 (UniProt Q8IUF1)
[1]
  log2 fold change: inactive: 0.027
[14]
  log2 fold change: inactive: 0.009
[2]
  log2 fold change: inactive: -0.02
[3]
  log2 fold change: inactive: 0.064
[4]
  log2 fold change: inactive: -0.018
[5]
  log2 fold change: inactive: -0.23
[15]
  log2 fold change: inactive: -0.031
[6]
  log2 fold change: inactive: 0.018
[16]
  log2 fold change: inactive: -0.053
[7]
  log2 fold change: inactive: 0
[17]
  log2 fold change: inactive: 0.084
[18]
  log2 fold change: inactive: -0.032
[8]
  log2 fold change: inactive: -0.009
[19]
  log2 fold change: inactive: 0.055
[9]
  log2 fold change: inactive: -0.03
[10]
  log2 fold change: inactive: 0.006
[20]
  log2 fold change: inactive: 0.014
[11]
  log2 fold change: inactive: 0.003
[12]
  log2 fold change: inactive: 0.038
[13]
  log2 fold change: inactive: -0.016

## CASP6 (UniProt P55212)
[1]
  log2 fold change: inactive: 0.024
[14]
  log2 fold change: inactive: -0.004
[2]
  log2 fold change: inactive: 0.009
[3]
  log2 fold change: inactive: 0.195
[4]
  log2 fold change: inactive: 0.003
[5]
  log2 fold change: inactive: -0.02
[15]
  log2 fold change: inactive: 0.022
[6]
  log2 fold change: inactive: 0.013
[16]
  log2 fold change: inactive: 0.054
[7]
  log2 fold change: inactive: -0.038
[17]
  log2 fold change: inactive: 0.018
[18]
  log2 fold change: inactive: 0.017
[8]
  log2 fold change: inactive: 0.005
[19]
  log2 fold change: inactive: -0.026
[9]
  log2 fold change: inactive: -0.001
[10]
  log2 fold change: inactive: 0.013
[20]
  log2 fold change: inactive: -0.027
[11]
  log2 fold change: inactive: -0.034
[12]
  log2 fold change: inactive: 0.003
[13]
  log2 fold change: inactive: 0.023

## CBX2 (UniProt Q14781)
[1]
  log2 fold change: inactive: -0.155
[17]
  log2 fold change: inactive: 0.055
[18]
  log2 fold change: inactive: -0.151
[19]
  log2 fold change: inactive: -0.031
[20]
  log2 fold change: inactive: 0.08
[12]
  log2 fold change: inactive: -0.069

## CD80 (UniProt P33681)
[1]
  log2 fold change: inactive: 0.122
[2]
  log2 fold change: inactive: -0.007
[3]
  log2 fold change: active: 0.395
[4]
  log2 fold change: inactive: 0.104
[5]
  log2 fold change: inactive: -0.086
[15]
  log2 fold change: inactive: 0.088
[6]
  log2 fold change: inactive: -0.008
[7]
  log2 fold change: inactive: 0.016
[17]
  log2 fold change: inactive: 0.259
[18]
  log2 fold change: inactive: -0.065
[8]
  log2 fold change: inactive: -0.015
[19]
  log2 fold change: inactive: -0.333
[9]
  log2 fold change: inactive: 0.039
[10]
  log2 fold change: inactive: 0.025
[20]
  log2 fold change: inactive: 0.023
[11]
  log2 fold change: inactive: -0.002
[12]
  log2 fold change: inactive: 0.086
[13]
  log2 fold change: inactive: -0.03
